Results are given in words; binding and its absence hold for the method and conditions named. Binding seen in cells or lysates may run through a third protein. Some binding calls cover weakened binding; strength is not graded here. Tags and fused reporters may be left off the sequences shown.
Tests used:
3Flag-PIGQ (human) = target: T1, 3Flag-PIGQ (human) (UniProt Q9BRB3); experiment: co-IP; lysates of PIGS-HRD1-CD55-TKO transfectants immunoprecipitated with anti-Flag beads; WB with Flag, Myc (and HA) antibodies; without and with overexpressed CD55
T1 sequence: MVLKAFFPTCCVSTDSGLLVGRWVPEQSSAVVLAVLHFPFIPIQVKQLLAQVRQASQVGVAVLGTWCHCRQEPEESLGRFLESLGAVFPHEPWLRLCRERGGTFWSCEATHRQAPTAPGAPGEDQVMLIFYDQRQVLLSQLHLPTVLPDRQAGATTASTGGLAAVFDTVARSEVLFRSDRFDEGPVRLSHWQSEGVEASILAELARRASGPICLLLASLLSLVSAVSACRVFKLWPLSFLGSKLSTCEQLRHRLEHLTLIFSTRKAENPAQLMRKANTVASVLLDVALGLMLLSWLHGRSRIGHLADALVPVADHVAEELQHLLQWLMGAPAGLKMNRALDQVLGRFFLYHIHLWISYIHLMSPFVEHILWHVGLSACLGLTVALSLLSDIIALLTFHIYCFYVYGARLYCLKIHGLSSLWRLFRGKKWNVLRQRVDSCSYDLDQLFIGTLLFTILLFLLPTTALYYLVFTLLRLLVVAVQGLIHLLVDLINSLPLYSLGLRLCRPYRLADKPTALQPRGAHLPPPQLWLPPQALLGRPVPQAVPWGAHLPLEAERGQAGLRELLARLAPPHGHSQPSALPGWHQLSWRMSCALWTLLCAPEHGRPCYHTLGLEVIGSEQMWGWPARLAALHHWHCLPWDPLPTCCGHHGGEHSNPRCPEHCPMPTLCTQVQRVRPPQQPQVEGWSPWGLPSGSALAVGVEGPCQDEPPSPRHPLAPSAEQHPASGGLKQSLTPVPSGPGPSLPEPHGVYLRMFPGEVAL

[1] = target: T2, PIGQ-NTC: PIGQ fused with the N-fragment of Citrine (human) (UniProt Q9BRB3); experiment: split reporter; split mCitrine (BiFC); constructs co-expressed with RFP-KDEL in PIGS-HRD1-CD55-TKO cells, cultured 2 d, fixed, confocal microscopy
T2 sequence: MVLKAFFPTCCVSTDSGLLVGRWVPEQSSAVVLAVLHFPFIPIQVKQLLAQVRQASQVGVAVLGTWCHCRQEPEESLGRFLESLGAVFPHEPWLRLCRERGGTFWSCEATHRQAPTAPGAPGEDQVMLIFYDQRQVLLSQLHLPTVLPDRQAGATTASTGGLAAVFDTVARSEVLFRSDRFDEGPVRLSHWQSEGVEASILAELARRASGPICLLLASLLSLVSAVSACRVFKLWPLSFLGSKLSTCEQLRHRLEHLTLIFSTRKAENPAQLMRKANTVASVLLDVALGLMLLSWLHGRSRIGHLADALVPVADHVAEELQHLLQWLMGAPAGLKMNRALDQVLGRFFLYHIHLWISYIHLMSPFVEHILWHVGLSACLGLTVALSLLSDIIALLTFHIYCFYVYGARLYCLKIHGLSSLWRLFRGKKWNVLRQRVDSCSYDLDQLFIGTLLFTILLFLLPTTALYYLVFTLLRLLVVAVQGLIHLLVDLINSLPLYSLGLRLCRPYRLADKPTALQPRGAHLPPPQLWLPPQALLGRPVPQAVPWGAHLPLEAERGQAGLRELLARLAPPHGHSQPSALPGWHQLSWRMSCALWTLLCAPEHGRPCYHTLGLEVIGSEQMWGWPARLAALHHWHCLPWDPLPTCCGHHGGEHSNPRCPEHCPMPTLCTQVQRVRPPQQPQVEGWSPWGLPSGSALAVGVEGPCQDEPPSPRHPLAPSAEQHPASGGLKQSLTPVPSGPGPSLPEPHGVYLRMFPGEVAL

| Binder | binding (3Flag-PIGQ (human)) | binding [1] |
| --- | --- | --- |
| N6myc-ARV1 (protein, UniProt Q9H2C2 1-271) MGNGGRSGLQQGKGNVDGVAATPTAASASCQYRCIECNQEAKELYRDYNHGVLKITICKSCQKPVDKYIEYDPVIILINAILCKAQAYRHILFNTQINIHGKLCIFCLLCEAYLRWWQLQDSNQNTAPDDLIRYAKEWDFYRMFAIAALEQTAYFIGIFTFLWVERPMTAKKKPNFILLLKALLLSSYGKLLLIPAVIWEHDYTSVCLKLIKVFVLTSNFQAIRVTLNINRKLSFLAVLSGLLLESIMVYFFQSMEWDVGSDYAIFKSQDF | binds | – |
| CTC-ARV1: C-terminal subdomain of mCitrine fused to the N-terminus of ARV1 (protein, UniProt Q9H2C2 1-271) MGNGGRSGLQQGKGNVDGVAATPTAASASCQYRCIECNQEAKELYRDYNHGVLKITICKSCQKPVDKYIEYDPVIILINAILCKAQAYRHILFNTQINIHGKLCIFCLLCEAYLRWWQLQDSNQNTAPDDLIRYAKEWDFYRMFAIAALEQTAYFIGIFTFLWVERPMTAKKKPNFILLLKALLLSSYGKLLLIPAVIWEHDYTSVCLKLIKVFVLTSNFQAIRVTLNINRKLSFLAVLSGLLLESIMVYFFQSMEWDVGSDYAIFKSQDF | – | binds |

Source: article PMC9997660
